The supplement of paper PMC10849652
Some of the results follow.

The chains behind the UniProt entries cited, without tags or fusion partners. Where a name states a change or a piece, a line headed by the entry shows the natural chain unless it says otherwise.
UniProt Q96Q15: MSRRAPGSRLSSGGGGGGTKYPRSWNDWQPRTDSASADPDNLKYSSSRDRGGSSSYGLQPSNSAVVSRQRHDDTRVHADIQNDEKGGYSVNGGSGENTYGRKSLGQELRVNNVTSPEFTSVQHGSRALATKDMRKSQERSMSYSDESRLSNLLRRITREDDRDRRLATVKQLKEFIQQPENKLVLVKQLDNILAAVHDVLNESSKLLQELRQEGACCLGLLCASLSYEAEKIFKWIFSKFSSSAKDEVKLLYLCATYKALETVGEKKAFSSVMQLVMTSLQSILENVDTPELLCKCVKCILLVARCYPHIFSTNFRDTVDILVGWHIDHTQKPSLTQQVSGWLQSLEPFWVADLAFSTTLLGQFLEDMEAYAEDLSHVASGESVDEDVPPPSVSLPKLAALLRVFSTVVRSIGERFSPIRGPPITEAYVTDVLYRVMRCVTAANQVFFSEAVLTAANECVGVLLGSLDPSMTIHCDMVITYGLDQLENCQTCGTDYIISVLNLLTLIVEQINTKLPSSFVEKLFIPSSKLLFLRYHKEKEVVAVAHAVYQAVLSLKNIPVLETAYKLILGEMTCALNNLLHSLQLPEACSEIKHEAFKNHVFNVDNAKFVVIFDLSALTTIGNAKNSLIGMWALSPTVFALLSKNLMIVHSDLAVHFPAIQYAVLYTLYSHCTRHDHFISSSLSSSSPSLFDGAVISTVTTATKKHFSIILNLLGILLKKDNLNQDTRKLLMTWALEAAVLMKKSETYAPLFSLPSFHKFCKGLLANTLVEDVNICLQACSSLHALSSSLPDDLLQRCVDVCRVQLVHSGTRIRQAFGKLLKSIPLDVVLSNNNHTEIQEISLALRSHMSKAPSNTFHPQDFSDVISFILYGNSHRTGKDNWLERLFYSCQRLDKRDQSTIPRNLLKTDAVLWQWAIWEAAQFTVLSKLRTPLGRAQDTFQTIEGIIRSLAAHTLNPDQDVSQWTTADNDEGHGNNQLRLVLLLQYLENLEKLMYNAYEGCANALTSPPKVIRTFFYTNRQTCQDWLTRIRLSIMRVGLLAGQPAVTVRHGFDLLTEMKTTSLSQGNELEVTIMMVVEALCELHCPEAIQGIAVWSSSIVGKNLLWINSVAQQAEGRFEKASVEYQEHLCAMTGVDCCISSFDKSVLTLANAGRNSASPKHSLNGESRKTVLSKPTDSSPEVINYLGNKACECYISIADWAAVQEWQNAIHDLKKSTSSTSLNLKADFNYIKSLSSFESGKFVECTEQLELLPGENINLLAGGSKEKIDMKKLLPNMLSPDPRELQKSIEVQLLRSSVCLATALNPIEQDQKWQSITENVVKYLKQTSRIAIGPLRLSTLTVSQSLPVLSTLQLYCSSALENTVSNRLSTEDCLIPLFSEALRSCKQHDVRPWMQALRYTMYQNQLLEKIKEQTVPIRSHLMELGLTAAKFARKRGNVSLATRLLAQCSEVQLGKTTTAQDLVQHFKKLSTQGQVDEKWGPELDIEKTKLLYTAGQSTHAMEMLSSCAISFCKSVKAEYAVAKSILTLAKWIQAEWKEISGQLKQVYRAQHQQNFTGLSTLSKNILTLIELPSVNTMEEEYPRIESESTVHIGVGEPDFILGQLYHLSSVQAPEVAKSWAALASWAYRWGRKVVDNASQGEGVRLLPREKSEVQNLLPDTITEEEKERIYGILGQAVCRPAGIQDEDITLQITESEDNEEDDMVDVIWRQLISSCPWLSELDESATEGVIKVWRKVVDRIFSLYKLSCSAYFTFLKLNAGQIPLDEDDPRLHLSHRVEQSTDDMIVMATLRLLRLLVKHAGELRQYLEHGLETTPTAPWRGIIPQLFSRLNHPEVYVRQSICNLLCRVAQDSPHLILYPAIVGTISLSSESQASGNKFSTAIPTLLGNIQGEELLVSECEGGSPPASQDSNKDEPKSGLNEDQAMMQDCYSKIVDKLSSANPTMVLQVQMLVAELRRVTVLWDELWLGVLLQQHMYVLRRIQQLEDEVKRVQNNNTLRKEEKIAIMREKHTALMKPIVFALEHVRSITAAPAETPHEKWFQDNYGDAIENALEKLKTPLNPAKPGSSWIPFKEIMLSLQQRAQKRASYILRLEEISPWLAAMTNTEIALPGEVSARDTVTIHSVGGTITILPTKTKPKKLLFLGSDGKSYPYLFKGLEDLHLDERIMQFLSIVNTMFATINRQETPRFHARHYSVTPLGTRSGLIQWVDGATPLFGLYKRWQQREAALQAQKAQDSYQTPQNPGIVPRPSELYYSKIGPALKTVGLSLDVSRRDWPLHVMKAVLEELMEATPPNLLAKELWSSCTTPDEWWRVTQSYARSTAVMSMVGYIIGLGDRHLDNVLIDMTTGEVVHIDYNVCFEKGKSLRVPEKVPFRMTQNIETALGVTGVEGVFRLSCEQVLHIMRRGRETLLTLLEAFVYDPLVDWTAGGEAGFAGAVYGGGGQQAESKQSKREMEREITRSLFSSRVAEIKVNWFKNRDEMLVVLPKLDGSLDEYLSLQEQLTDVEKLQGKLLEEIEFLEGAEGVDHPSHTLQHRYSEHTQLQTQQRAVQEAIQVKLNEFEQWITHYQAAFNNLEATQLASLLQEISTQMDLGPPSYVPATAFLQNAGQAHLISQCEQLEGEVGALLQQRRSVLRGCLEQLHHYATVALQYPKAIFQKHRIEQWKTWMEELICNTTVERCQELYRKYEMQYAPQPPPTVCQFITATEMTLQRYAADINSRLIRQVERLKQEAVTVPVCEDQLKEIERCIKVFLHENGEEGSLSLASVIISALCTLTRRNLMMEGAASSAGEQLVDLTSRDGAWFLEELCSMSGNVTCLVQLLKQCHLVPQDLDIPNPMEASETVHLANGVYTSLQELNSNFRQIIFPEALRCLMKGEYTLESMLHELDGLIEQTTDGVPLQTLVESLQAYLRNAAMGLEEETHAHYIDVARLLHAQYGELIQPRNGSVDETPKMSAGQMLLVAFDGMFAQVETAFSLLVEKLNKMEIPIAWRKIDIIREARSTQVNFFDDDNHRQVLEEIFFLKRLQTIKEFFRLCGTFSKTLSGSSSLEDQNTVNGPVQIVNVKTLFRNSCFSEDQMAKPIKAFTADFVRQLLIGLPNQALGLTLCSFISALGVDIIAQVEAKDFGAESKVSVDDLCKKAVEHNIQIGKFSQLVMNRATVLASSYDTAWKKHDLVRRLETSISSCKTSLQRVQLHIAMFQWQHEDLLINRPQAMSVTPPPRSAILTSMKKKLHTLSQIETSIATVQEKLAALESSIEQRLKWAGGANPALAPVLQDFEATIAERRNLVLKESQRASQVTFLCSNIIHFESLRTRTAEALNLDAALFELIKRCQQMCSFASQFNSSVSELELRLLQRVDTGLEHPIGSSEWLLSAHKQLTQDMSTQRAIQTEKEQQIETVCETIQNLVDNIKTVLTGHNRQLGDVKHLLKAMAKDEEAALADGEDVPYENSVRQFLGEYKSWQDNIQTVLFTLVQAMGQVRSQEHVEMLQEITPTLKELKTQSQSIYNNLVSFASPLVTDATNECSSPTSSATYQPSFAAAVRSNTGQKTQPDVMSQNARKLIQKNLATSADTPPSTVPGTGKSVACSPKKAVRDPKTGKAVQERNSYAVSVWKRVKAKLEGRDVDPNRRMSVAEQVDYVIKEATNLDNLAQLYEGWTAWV
UniProt Q969G3, whole entry, looked up: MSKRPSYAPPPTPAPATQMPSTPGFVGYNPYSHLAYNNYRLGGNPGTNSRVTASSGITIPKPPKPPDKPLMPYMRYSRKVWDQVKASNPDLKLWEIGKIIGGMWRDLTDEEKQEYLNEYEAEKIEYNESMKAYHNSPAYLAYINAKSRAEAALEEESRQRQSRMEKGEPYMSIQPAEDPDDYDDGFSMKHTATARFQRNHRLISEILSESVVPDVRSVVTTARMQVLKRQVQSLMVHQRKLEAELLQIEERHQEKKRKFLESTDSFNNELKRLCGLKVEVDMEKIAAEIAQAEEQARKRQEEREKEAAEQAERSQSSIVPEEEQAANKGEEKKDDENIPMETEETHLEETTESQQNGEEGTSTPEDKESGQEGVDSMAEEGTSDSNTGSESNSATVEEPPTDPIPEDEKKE
UniProt Q92536: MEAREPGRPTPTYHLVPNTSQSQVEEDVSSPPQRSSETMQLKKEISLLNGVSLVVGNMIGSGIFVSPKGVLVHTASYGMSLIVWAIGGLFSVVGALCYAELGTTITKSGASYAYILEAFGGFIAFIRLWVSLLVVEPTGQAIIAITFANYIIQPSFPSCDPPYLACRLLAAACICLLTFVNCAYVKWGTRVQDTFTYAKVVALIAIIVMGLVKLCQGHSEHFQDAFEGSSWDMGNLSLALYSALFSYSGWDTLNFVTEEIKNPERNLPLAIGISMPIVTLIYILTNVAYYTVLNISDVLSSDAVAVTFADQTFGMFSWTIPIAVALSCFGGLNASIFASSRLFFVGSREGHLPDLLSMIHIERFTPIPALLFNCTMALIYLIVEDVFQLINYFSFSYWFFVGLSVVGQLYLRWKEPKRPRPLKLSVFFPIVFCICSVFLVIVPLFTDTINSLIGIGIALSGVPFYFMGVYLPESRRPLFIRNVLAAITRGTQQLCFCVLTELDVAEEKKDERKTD
UniProt O75940: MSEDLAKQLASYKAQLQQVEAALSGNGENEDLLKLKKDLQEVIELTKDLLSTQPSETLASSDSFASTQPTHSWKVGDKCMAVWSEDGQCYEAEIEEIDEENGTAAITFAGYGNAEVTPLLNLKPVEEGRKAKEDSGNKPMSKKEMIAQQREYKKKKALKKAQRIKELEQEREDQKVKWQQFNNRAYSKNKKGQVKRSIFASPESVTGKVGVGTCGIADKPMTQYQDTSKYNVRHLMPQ
UniProt Q96EX1: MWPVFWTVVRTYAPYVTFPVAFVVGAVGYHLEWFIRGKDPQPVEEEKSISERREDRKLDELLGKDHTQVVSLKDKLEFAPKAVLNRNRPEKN
UniProt Q14BN4: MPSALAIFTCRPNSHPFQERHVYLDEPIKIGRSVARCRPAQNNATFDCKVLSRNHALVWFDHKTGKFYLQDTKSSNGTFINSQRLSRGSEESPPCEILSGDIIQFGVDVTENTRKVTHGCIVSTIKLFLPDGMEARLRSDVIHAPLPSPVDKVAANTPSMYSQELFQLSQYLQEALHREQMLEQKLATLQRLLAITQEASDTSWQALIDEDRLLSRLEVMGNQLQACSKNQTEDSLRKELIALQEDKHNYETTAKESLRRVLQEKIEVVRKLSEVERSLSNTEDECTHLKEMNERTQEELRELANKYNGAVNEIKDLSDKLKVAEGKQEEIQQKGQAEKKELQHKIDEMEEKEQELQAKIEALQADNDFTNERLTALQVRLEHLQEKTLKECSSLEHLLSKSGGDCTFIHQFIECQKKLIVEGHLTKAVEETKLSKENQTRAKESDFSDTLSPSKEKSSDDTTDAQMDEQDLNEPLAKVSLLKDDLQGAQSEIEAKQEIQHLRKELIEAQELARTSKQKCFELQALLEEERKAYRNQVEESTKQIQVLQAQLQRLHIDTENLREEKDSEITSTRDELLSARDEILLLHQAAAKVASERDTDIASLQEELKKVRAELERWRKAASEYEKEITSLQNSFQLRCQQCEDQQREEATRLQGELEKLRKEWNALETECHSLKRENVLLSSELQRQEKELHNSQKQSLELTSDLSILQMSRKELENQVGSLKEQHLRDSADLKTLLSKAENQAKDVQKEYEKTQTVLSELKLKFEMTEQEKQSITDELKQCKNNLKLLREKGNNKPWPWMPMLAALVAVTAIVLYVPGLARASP
UniProt P09661: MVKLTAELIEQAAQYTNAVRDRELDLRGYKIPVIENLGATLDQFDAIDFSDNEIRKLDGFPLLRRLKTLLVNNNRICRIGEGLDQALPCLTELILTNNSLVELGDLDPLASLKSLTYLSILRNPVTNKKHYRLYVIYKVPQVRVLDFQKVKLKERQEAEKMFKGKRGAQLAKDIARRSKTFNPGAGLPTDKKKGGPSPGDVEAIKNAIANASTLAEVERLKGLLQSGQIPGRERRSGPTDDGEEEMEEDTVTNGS
UniProt Q9Y5X3: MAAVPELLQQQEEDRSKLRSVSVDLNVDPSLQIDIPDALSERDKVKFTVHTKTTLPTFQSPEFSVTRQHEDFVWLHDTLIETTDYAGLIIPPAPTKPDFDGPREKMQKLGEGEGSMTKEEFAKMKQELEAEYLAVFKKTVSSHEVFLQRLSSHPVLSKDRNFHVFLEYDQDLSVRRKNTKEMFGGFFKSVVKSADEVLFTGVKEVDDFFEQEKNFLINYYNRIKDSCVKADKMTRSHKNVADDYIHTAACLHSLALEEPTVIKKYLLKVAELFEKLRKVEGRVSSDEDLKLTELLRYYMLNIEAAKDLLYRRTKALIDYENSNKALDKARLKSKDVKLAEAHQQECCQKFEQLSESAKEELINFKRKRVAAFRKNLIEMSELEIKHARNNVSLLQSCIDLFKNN
UniProt P09234, whole entry, looked up: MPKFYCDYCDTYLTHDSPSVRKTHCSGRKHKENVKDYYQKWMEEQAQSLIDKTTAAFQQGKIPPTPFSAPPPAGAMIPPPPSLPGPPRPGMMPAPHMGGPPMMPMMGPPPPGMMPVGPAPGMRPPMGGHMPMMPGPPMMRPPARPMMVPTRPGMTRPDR

Experiments:
Assay in all cases: log2 fold change, soluble protein after heating vs DMSO (PISA); higher = thermal stabilisation; K562 cells, 10 uM, 30 min; active = over 0.2 and 3.5 SD of the protein, either way, in both replicates (recomputed)
[1] = compound: COC1=CC=C(C=C1)CN2C=CC3=C2C=C(C=C3)C(=O)NO
Outline: (§1)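 K562 cells at 2×10^6 cells/mL were given 10 μM compound for 30 min. Aliquots then went through 3 min of heating across 48°C-58°C, were pooled, and were extracted in PBS with 0.5% NP-40 at 4°C, and the supernatant after 21,000xg for 90 min was quantified by TMTpro 16plex LC-MS/MS with channel sums equalised. Thermal stability relative to control samples, from duplicates, is given as log2 fold change.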

filanesib = compound: CON(C)C(=O)N1N=C(c2cc(F)ccc2F)S[C@@]1(CCCN)c1ccccc1 [filanesib]
Outline: as §1

zotarolimus = compound: CO[C@H]1C[C@@H]2CC[C@@H](C)[C@@](O)(O2)C(=O)C(=O)N2CCCC[C@H]2C(=O)O[C@H]([C@H](C)C[C@@H]2CC[C@H](n3cnnn3)[C@H](OC)C2)CC(=O)[C@H](C)/C=C(\C)[C@@H](O)[C@@H](OC)C(=O)[C@H](C)C[C@H](C)/C=C/C=C/C=C/1C [zotarolimus]
Outline: as §1

idasanutlin = compound: COc1cc(C(=O)O)ccc1NC(=O)[C@@H]1N[C@@H](CC(C)(C)C)[C@](C#N)(c2ccc(Cl)cc2F)[C@H]1c1cccc(Cl)c1F [idasanutlin]
Outline: as §1

alisertib = compound: COc1cc(Nc2ncc3c(n2)-c2ccc(Cl)cc2C(c2c(F)cccc2OC)=NC3)ccc1C(=O)O [alisertib]
Outline: as §1

[2] = compound: COc1cc2nc(-c3cc(F)ccc3O)nc(N[C@@H]3CNC[C@H]3C(C)(C)O)c2cc1OC
Outline: as §1

gefitinib = compound: COc1cc2ncnc(Nc3ccc(F)c(Cl)c3)c2cc1OCCCN1CCOCC1 [gefitinib]
Outline: as §1

[3] = compound: COc1cccc2cc(-c3nc([C@H]4CC[C@H](C(=O)O)CC4)n4ncnc(N)c34)[nH]c12
Outline: as §1

lapatinib = compound: CS(=O)(=O)CCNCc1ccc(-c2ccc3ncnc(Nc4ccc(OCc5cccc(F)c5)c(Cl)c4)c3c2)o1 [lapatinib]
Outline: as §1

pictilisib = compound: CS(=O)(=O)N1CCN(Cc2cc3nc(-c4cccc5[nH]ncc45)nc(N4CCOCC4)c3s2)CC1 [pictilisib]
Outline: as §1

Measured: log2 fold change

SMG5 (UniProt Q9UPR3)
inactive: [1] -0.038 | filanesib 0.234 | zotarolimus 0.021 | idasanutlin 0.146 | alisertib 0.019 | [2] 0.028 | gefitinib -0.137 | [3] -0.085 | lapatinib 0.095

SP1 (UniProt P08047)
inactive: [1] -0.064 | filanesib 0.022 | zotarolimus -0.033 | idasanutlin -0.002 | alisertib -0.025 | [2] -0.007 | gefitinib -0.043 | [3] 0.005 | lapatinib -0.004 | pictilisib 0.142

SNX8 (UniProt Q9Y5X2)
inactive: [1] -0.021 | filanesib 0.012 | zotarolimus -0.01 | idasanutlin 0.025 | alisertib -0.054 | [2] -0.002 | gefitinib 0 | [3] 0.093 | lapatinib 0.034 | pictilisib 0.02

SMU1 isoform 2 (UniProt Q2TAY7)
inactive: [1] 0.497

SMG1 (UniProt Q96Q15)
inactive: [1] -0.142 | filanesib 0.061 | zotarolimus -0.001 | idasanutlin -0.038 | alisertib -0.002 | [2] 0.055 | gefitinib 0.008 | [3] -0.047 | lapatinib 0.003 | pictilisib 0.018

SP3 (UniProt Q02447)
inactive: [1] -0.001 | filanesib -0.008 | zotarolimus -0.024 | idasanutlin 0.052 | alisertib -0.084 | [2] 0.037 | gefitinib -0.038 | [3] -0.04 | lapatinib 0.016 | pictilisib 0.041

SNW1 (UniProt Q13573)
inactive: [1] 0.014 | filanesib 0.039 | zotarolimus -0.068 | idasanutlin 0.034 | alisertib -0.08 | [2] 0.073 | gefitinib -0.068 | [3] 0 | lapatinib 0.011 | pictilisib -0.035

6 neighbouring records already listed, for reference:
SMG5 (UniProt Q9UPR3)
inactive: [1] -0.038 | filanesib 0.234 | zotarolimus 0.021 | idasanutlin 0.146 | alisertib 0.019 | [2] 0.028 | gefitinib -0.137 | [3] -0.085 | lapatinib 0.095

SP1 (UniProt P08047)
inactive: [1] -0.064 | filanesib 0.022 | zotarolimus -0.033 | idasanutlin -0.002 | alisertib -0.025 | [2] -0.007 | gefitinib -0.043 | [3] 0.005 | lapatinib -0.004 | pictilisib 0.142

SNX8 (UniProt Q9Y5X2)
inactive: [1] -0.021 | filanesib 0.012 | zotarolimus -0.01 | idasanutlin 0.025 | alisertib -0.054 | [2] -0.002 | gefitinib 0 | [3] 0.093 | lapatinib 0.034 | pictilisib 0.02

SMU1 isoform 2 (UniProt Q2TAY7)
inactive: [1] 0.497

SMG1 (UniProt Q96Q15)
inactive: [1] -0.142 | filanesib 0.061 | zotarolimus -0.001 | idasanutlin -0.038 | alisertib -0.002 | [2] 0.055 | gefitinib 0.008 | [3] -0.047 | lapatinib 0.003 | pictilisib 0.018

SP3 (UniProt Q02447)
inactive: [1] -0.001 | filanesib -0.008 | zotarolimus -0.024 | idasanutlin 0.052 | alisertib -0.084 | [2] 0.037 | gefitinib -0.038 | [3] -0.04 | lapatinib 0.016 | pictilisib 0.041

The listing continues.

SNX18 (UniProt Q96RF0)
inactive: [1] -0.193 | filanesib -0.272

SMARCE1 (UniProt Q969G3)
inactive: [1] 0.035 | filanesib 0.058 | zotarolimus 0.052 | idasanutlin 0.013 | alisertib -0.21 | [2] -0.07 | gefitinib 0.066 | [3] 0.206 | lapatinib 0.038 | pictilisib -0.062

SNCA (UniProt P37840)
inactive: [1] -0.006 | filanesib -0.04 | zotarolimus 0.014 | idasanutlin -0.052 | alisertib -0.08 | [2] 0.052 | gefitinib 0.014 | [3] 0.041 | lapatinib 0.002 | pictilisib -0.029

SNRNP27 (UniProt Q8WVK2)
inactive: [1] -0.075 | filanesib 0.03 | zotarolimus -0.156 | idasanutlin 0.121 | alisertib -0.003 | [2] -0.015 | gefitinib -0.011 | [3] 0.135 | lapatinib 0.005 | pictilisib -0.009

SMC1B isoform 3 (UniProt Q8NDV3)
inactive: [1] -0.081 | filanesib 0.009 | zotarolimus 0.027 | idasanutlin 0.076 | alisertib -0.022 | [2] -0.108 | gefitinib -0.035 | [3] 0.101 | lapatinib 0.026 | pictilisib -0.015

SMU1 (UniProt Q2TAY7)
inactive: [1] 0.015 | filanesib 0.051 | zotarolimus 0.022 | idasanutlin -0.007 | alisertib -0.058 | [2] 0.004 | gefitinib -0.015 | [3] -0.027 | lapatinib 0.072 | pictilisib -0.004

SLC7A6 (UniProt Q92536)
inactive: filanesib 0.009 | zotarolimus -0.001 | idasanutlin -0.02 | alisertib -0.069 | [2] 0.028 | gefitinib 0.073 | [3] 0.048 | lapatinib 0.033 | pictilisib 0.048
active: [1] -0.236

SMIM8 (UniProt Q96KF7)
inactive: [1] -0.044 | filanesib -0.09 | zotarolimus 0.037 | idasanutlin -0.11 | alisertib -0.097 | [2] 0.013 | gefitinib 0.024 | [3] 0.088 | lapatinib -0.035 | pictilisib 0.056

SLC9A3R1 (UniProt O14745)
inactive: [1] 0.021 | filanesib -0.024 | zotarolimus -0.032 | idasanutlin 0.011 | alisertib -0.037 | [2] 0 | gefitinib 0 | [3] 0.038 | lapatinib 0.012 | pictilisib 0.017

SMNDC1 (UniProt O75940)
inactive: [1] -0.014 | filanesib 0.053 | zotarolimus -0.043 | idasanutlin 0.072 | alisertib -0.005 | [2] 0.075 | gefitinib -0.002 | [3] 0.012 | lapatinib -0.003 | pictilisib 0.042

SMIM12 (UniProt Q96EX1)
inactive: [1] -0.256 | filanesib -0.071 | zotarolimus 0.022 | idasanutlin 0.014 | alisertib -0.134 | [2] -0.029 | gefitinib -0.004 | [3] -0.165 | lapatinib -0.103 | pictilisib 0.004

SLMAP (UniProt Q14BN4)
inactive: [1] 0.056 | filanesib 0.137 | zotarolimus 0.043 | idasanutlin -0.005 | alisertib -0.022 | [2] 0.012 | gefitinib 0.051 | [3] -0.126 | lapatinib -0.004 | pictilisib 0.016

SND1 (UniProt Q7KZF4)
inactive: [1] -0.102 | filanesib 0.723 | zotarolimus 0.119 | idasanutlin 0.4 | alisertib -0.116 | [2] -0.012 | gefitinib -0.012 | [3] -0.519 | lapatinib 0.163 | pictilisib -0.195

SMC6 isoform 2 (UniProt Q96SB8)
inactive: [1] 0.012 | filanesib 0.059 | zotarolimus 0.022 | idasanutlin -0.02 | alisertib -0.074 | [2] 0.05 | gefitinib 0.031 | [3] 0.049 | lapatinib -0.023 | pictilisib 0.042

SLIRP (UniProt Q9GZT3)
active: filanesib -0.429 | [2] -0.648
inactive: [1] 0.088 | zotarolimus -0.054 | idasanutlin 0.041 | alisertib -0.08 | gefitinib 0.041 | [3] 0.023 | lapatinib -0.042 | pictilisib -0.15

SMARCC2 (UniProt Q8TAQ2)
inactive: [1] -0.017 | filanesib -0.118 | zotarolimus 0.06 | idasanutlin 0.123 | alisertib -0.102 | [2] -0.044 | gefitinib -0.043 | [3] -0.263 | lapatinib -0.024 | pictilisib -0.148

SNRPA1 (UniProt P09661)
inactive: [1] -0.006 | filanesib -0.001 | zotarolimus 0 | idasanutlin 0.049 | alisertib -0.149 | [2] 0.029 | gefitinib -0.025 | [3] -0.012 | lapatinib 0.027 | pictilisib 0.074

SNX5 (UniProt Q9Y5X3)
inactive: [1] -0.06 | filanesib -0.172 | zotarolimus 0.015 | idasanutlin -0.015 | alisertib -0.012 | [2] -0.066 | gefitinib -0.136 | [3] 0.008 | lapatinib 0.01 | pictilisib -0.085

SMC2 (UniProt O95347)
inactive: [1] 0.022 | filanesib 0.015 | zotarolimus 0.016 | idasanutlin -0.024 | alisertib -0.005 | [2] 0.085 | gefitinib 0.019 | [3] -0.06 | lapatinib 0.019 | pictilisib 0.045

SNX3 (UniProt O60493)
inactive: [1] -0.049 | filanesib 0.012 | zotarolimus 0.022 | idasanutlin 0.075 | alisertib 0.074 | [2] -0.08 | gefitinib 0.01 | [3] 0.056 | lapatinib -0.026 | pictilisib -0.03

SNRPB isoform 3 (UniProt P14678)
inactive: [1] -0.046 | filanesib 0.079 | zotarolimus -0.015 | idasanutlin 0.041 | alisertib -0.05 | [2] -0.014 | gefitinib -0.056 | [3] 0.016 | lapatinib 0.036 | pictilisib -0.066

SNX6 (UniProt Q9UNH7)
inactive: [1] -0.036 | filanesib -0.187 | zotarolimus 0.02 | idasanutlin -0.01 | alisertib -0.035 | [2] -0.109 | gefitinib -0.123 | [3] 0.004 | lapatinib -0.055 | pictilisib -0.252

SNRPC (UniProt P09234)
inactive: [1] 0 | filanesib 0.033 | zotarolimus -0.005 | idasanutlin 0.048 | alisertib -0.082 | [2] -0.13 | gefitinib -0.009 | [3] 0.008 | lapatinib 0.003 | pictilisib -0.033

SLPI (UniProt P03973)
inactive: [1] 1.64

SNRNP40 (UniProt Q96DI7)
active: pictilisib 0.295
inactive: [1] -0.039 | filanesib 0.08 | zotarolimus -0.015 | idasanutlin 0.007 | alisertib -0.054 | [2] 0.191 | gefitinib -0.052 | [3] 0.025 | lapatinib 0.02
